This is one part of the list. Cut-off read from the data, not from the text of the source: active = 2 or more and inactive = the rest. This data set is noisy: repeats of one test often differ as much as different tests do.
Test system: Lgr5 (MarsCy1-Lgr5-EGFP, U2OS)
Test: cell-surface Lgr5 expression (SCi1 fluorescence, background-subtracted) relative to WT DMSO (fold of DMSO control); higher = more Lgr5 at the plasma membrane
Details: U2OS MarsCy1-Lgr5-EGFP stable; treatment time: overnight; library: ActiProbe-5K (TimTec); 25 µM

cell-surface Lgr5 expression, inactive:
COc1ccc(-c2noc(-c3ccc(OC)cc3)[n+]2[O-])cc1 1.42
COc1ccc(OC)c(S(=O)(=O)N2CCOCC2)c1 1.13
CCc1n[nH]c2c1C1(CCC3(CC1)OCCO3)C(C#N)=C(N)O2 1.12
CS(=O)(=O)c1c(Cl)cc(Cl)cc1Cl 1.25
CN1CCN(c2nc3ccccc3nc2N2CCN(C)CC2)CC1 1.34
CN(CCOc1ccccc1)S(=O)(=O)c1ccc2c(c1)oc1ccccc12 1.07
O=c1[nH]n2cc(-c3n[nH]cc3[N+](=O)[O-])cnc2c1[N+](=O)[O-] 1.19
O=S(=O)(NCCn1cccc1)c1ccc2ccccc2c1 1.18
N=C1NC(c2ccccc2)=CC(c2ccccc2)S1 (configuration not stated) 1.01
Oc1ccc(/N=N\c2ccc(O)cc2)cc1 0.664
COc1cccc(-c2nnc3n2N=C(c2cc(OC)ccc2OC)CS3)c1 1.19
Cc1c(C)c(/C=N\O)c(C)c(C)c1/C=N\O 1.09
C=CCn1cnc2ccc(Br)cc2c1=O 1.19
OC1=C2C(=Nc3ccccc3SC2c2ccc(Br)cc2)c2ccccc21 (configuration not stated) 0.921
Cc1ccc(/C=N/NC(=O)c2ccco2)o1 1.21
Nc1ccc(S(=O)(=O)Nc2ncccn2)cc1 1.41
O=C(O)C1CCCN1S(=O)(=O)c1ccc(Cl)s1 (configuration not stated) 1.29
O=S(=O)(Nc1ccc(Br)cc1F)c1ccc(F)cc1 1.07
Br.NC1=Nc2cccc3cccc(c23)N1.O 0.737
CCNCC1Cc2ccccc2O1 (configuration not stated) 1.37
CC(C)N/C(=N\C#N)SCc1ccc(Br)cc1 0.892
O=S(=O)(Nc1cccnc1)c1ccc(F)cc1 1.04
CC(=O)c1ccc(/C=C\C(=O)O)o1 1.15
Nc1nonc1/C(=N\O)N1CCN(c2ccc([N+](=O)[O-])cc2)CC1 0.892
Cc1nn(CCCNS(=O)(=O)c2c(C)noc2C)c(C)c1Br 1.26
CN1Cc2cc(S(=O)(=O)NC3CC3)ccc2N(C)C1=O 1.53
CC1(C)CC(N2C(=O)OC(C)(C)C2(C)O)CC(C)(C)N1 (configuration not stated) 1.09
CC(C)c1cc(=O)n2nc(N)[nH]c2n1 1.26
CC(C)N1CCC2(CC1)C(C#N)=C(N)NC(S)=C2C#N 1.02
COCc1[nH]nc2c1C1(CCSCC1)C(C#N)=C(N)O2 1.17
N#CCn1c2c(c(=O)n3ncnc13)CCCC2 0.995
CC(C)COC(=O)CSc1n[nH]c(=O)[nH]c1=O 1.27
COc1cc2c(cc1OC)-c1cc3ccc(OC)c(OC)c3c[n+]1CC2.O.[Cl-] 0.874
Fc1ccccc1-c1nnc2n1N=C(c1ccc3c(c1)OCO3)CS2 1.01
C1(=C2\OC(=O)c3c2cccc3)/c2c(cccc2)c2c1cccc2 1.18
O=[N+]([O-])c1cccnc1N/N=C/c1cc(Br)c(Br)o1 1.29
COc1cc(C(c2cc3c(cc2O)OCO3)N2CCOCC2)cc(OC)c1OC (configuration not stated) 1.5
O=S(=O)(NCc1ccco1)c1cc(Cl)ccc1Cl 1.33
Cc1cc(N)nn1Cn1cc(Cl)cn1 1.13
COc1cc(/C=N/NC(N)=S)cc(OC)c1 1.22
C1=CCC(CNCCCn2ccnc2)CC1 (configuration not stated) 1.41
O=c1[nH]c(=S)[nH]c2c1CCC2 0.992
Clc1ccc(-c2csc3c4ncnc-4ncn23)cc1 0.826
COc1c2c(c(CN3C(=O)C4CC=CCC4C3=O)c(OC)c1OC)C(=O)OC2 (configuration not stated) 1.24
COC(=O)c1ccn(Cn2nnc(CCn3cc(Cl)cn3)n2)n1 0.999
Cc1nn(CC(C)C(=O)NC2=C(C#N)CCC2)c(C)c1Br (configuration not stated) 1.06
CSc1ncc(C(=O)O)c(N)n1 1.26
NS(=O)(=O)c1ccc(-c2ccc(/C=N/C3CCS(=O)(=O)C3)o2)cc1 (configuration not stated) 1.2
CS(=O)(=O)O.Cn1c(Cl)c(CN)c2ccccc21 1.2
CN(C)CCCNS(=O)(=O)c1cc(Cl)ccc1Cl 1
N=C(N)SCc1ccc(Cl)cc1 0.913
O=S(=O)(Nc1cccc2ccccc12)N1CCCC1 1.04
CCCCc1[nH]nc2c1C1(CCOC1C)C(C#N)=C(N)O2 (configuration not stated) 0.802
CC(=O)OC1CCC2(C)C(=CCC3C2CCC2(C)C(/C(C)=N\NC(N)=O)CCC32)C1 (configuration not stated) 1.35
S=C1NC2CCCCC2N1 (configuration not stated) 1.26
CC(C1CCC(=N\NC(=O)CCCC(N\N=C2\CCC(C(C)(C)C)CC2)=O)/CC1)(C)C (configuration not stated) 1.3
c1ccc(-c2cccc(-c3ccccn3)n2)nc1 0.366
O=c1[nH]nc(Br)c(=S)[nH]1 1.2
O=C(C(=O)N1CCC[C@H]1CO)N1CCC[C@H]1CO 1.11
NC(=S)N1N=C(c2ccccc2)CC1c1ccccc1 (configuration not stated) 1.2
O=C1NC2CC(O)(N1)C1OCC2O1 (configuration not stated) 1.22
c1ccc(CC2COC(C3=N[C@@H](Cc4ccccc4)CO3)=N2)cc1 (some centres not stated) 1.11
CC1S/C(=N/N=C\c2ccc(O)cc2)N=C1O (configuration not stated) 1.59
N#Cc1c(C(F)(F)F)cc(C2CC2)nc1SCc1ccccc1 1.2
c1ccc2c3c(cc(N4CCOCC4)c2c1)OC1(N2CCCCC2)CCCCC1O3 (configuration not stated) 1.31
COc1ccc(C(=S)NN)cc1 1
O=C1CCCC(O)=C1C1C2=C(CCCC2=O)Oc2ccccc21 (configuration not stated) 0.898
c1ccc2c(c1)c1c3n2CCNC3CCC1 (configuration not stated) 1.44
C=CC[n+]1ccc2ccccc2c1.[Br-] 1.28
Nc1c(C(=O)[O-])sc2nc3c(cc12)CCCC3 1.11
Cc1ccc(C2C(C#N)=C(N)SC(N)=C2C#N)o1 1.42
COc1cccc(=O)c2c(C)oc(C)c12 1.19
O=C1CCCC2=C1C1(OC3C=CC=CN23)C(=O)c2ccccc2C1=O (configuration not stated) 1.39
Clc1ccc(Cl)c(/N=C\c2cc3ccccc3nc2Cl)c1 1.34
O=S(=O)(c1ccc(-n2ccnc2)cc1)N1CCCC1 0.947
Clc1ccc(-n2cccc2)nc1 0.995
Cc1nn(C)cc1NC(=S)N1CCSCC1 1.26
Cc1cccn2c(=O)c(/C=C3/SC(=S)N(C(C)C)C3=O)c(N3CCCC3)nc12 0.937
Nc1ccc2c(c1)S(=O)(=O)c1cc(N)ccc1C2 1.08
CCOC(=O)c1[nH]c(COC(C)=O)c(CC)c1C 1.39
Nc1nc(O)c2nc([C@H](O)[C@H](O)CO)cnc2n1 1.4
O=S(=O)(Nc1ccc(Cl)cn1)c1ccc(F)cc1 0.994
N#CCCN(/N=C\c1cccc2ccccc12)C1=NS(=O)(=O)c2ccccc21 1.67
Cn1c(-c2ccco2)nn(CN2CCC(C(N)=O)CC2)c1=S 1.21
CN(C)CCCNC(=O)C12CC3CC(CC(C3)C1)C2 1.58
Cc1ncc(CO)c(CO)c1O.Cl 1.23
CCOC(=O)ON1C(=O)c2ccccc2N2COc3ccccc3C12 (configuration not stated) 1.11
CN1CCC2(CC1)C(C#N)=C(N)C(C#N)(C#N)C1=C2CN(C)CC1 1.13
O=C(NCCCCCCNC(=O)C1CCCCC1)C1CCCCC1 0.992
CSc1sc2c(O)nc(=O)[nH]c2c1C#N 1.24
CCn1cc(C(=O)O)c(=O)c2cnc(N3CCN(C(=S)NC)CC3)nc21 1.05
CCc1sc(/C=N\NC(N)=O)cc1Br 1.02
CN1C(=S)NC(C)(C)CC1(C)O (configuration not stated) 1.18
O=C1CCCC(O)=C1C1(O)C(=O)c2ccccc2C1=O 1.27
O=S1(=O)c2cccc3cccc(c23)N1Cc1cccc(F)c1 0.942
COc1cc2c(cc1[N+](=O)[O-])OCO2 1.2
CN(C)c1nc(N)nc(CN2C(=O)C3CC=CCC3C2=O)n1 (configuration not stated) 1.11
COc1ccc(Nc2nc(NN)nc(OCC(F)(F)F)n2)cc1 1.39
O=C(O)C1=CC=C(Cl)[C@H](O)[C@@H]1O 1.31
CCOC(=O)N1CCC2(CC1)C(C#N)=C(N)OC1=C2C(=O)CC(C)C1 (configuration not stated) 1.3
O=C(N/N=C/c1ccc(Br)s1)c1ccco1 1.52
CC(=O)Nc1nonc1NC(=O)CSc1nc(N)n[nH]1 1.22
Nc1ncnc(N2CCCCC2)c1[N+](=O)[O-] 0.56
O=C(Nc1nncs1)c1cccs1 1.23
Nc1nnnn1/N=C1/C(=O)Nc2ccc(Br)cc21 1.45
Cc1occc1C(=O)N/N=C/c1ccco1 0.962
COc1cc(OC)cc(C2SC(N)=C(C#N)C(N)=C2C#N)c1 (configuration not stated) 1.11

A draw from above in order of molecular weight, descending.
cell-surface Lgr5 expression, inactive:
OC1=C2C(=Nc3ccccc3SC2c2ccc(Br)cc2)c2ccccc21 (configuration not stated) 0.921
CC(C)N/C(=N\C#N)SCc1ccc(Br)cc1 0.892
O=S(=O)(Nc1ccc(Cl)cn1)c1ccc(F)cc1 0.994
O=C(C(=O)N1CCC[C@H]1CO)N1CCC[C@H]1CO 1.11
O=S(=O)(Nc1cccnc1)c1ccc(F)cc1 1.04
CC(C)c1cc(=O)n2nc(N)[nH]c2n1 1.26

Random excerpt: 2 records from the list, in no set order.
cell-surface Lgr5 expression, inactive:
S=C1NC2CCCCC2N1 (configuration not stated) 1.26
O=C1CCCC(O)=C1C1(O)C(=O)c2ccccc2C1=O 1.27

— the supplement of paper PMC4683952
